Test results taken from PMC13248759.
These are yes or no findings as the source states them, for the method shown. For part of these data: Binding can be weak; no strength is given. For part of these data: Tags and fused reporters may be left off the sequences shown. For part of these data: Binding seen in cells or lysates may run through a third protein. Values belong to the molecule of their own block, whether it stands above or below them.

Sequences of proteins named here, by UniProt entry; tags and fusion partners are left off. A change or cut given only in a name is not applied to a line headed by its entry.
UniProt Q9Y5X1: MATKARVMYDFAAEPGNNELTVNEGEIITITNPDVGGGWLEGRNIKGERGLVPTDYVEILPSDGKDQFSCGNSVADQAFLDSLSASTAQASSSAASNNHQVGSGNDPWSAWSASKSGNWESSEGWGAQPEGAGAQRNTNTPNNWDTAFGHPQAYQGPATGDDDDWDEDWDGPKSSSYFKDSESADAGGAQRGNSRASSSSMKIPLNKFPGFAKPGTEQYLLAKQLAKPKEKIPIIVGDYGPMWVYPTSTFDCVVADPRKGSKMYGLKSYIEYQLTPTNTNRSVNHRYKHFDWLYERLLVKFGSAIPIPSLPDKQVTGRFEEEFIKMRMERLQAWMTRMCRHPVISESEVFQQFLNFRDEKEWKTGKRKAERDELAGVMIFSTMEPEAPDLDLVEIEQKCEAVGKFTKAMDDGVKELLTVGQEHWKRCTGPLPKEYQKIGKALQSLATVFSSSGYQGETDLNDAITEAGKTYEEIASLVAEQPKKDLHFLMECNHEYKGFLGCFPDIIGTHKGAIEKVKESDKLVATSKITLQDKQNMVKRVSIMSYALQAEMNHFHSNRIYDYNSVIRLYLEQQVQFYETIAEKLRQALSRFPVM

Key:
[1] = molecular target: T1, GST-tagged NUMB-1 protein of the in vitro binding assay of Figure S6D (human) (UniProt P49757); experiment: pull-down; GST-tagged proteins (0.5 uM) on GSH beads, SNX9 proteins (1.5 uM) in solution, 2 h at 4 C, 10 mM Hepes pH 7.5, 150 mM NaCl, 5% glycerol, 0.1% Tween-20, Coomassie staining (Figure S6D); both purified
T1 sequence: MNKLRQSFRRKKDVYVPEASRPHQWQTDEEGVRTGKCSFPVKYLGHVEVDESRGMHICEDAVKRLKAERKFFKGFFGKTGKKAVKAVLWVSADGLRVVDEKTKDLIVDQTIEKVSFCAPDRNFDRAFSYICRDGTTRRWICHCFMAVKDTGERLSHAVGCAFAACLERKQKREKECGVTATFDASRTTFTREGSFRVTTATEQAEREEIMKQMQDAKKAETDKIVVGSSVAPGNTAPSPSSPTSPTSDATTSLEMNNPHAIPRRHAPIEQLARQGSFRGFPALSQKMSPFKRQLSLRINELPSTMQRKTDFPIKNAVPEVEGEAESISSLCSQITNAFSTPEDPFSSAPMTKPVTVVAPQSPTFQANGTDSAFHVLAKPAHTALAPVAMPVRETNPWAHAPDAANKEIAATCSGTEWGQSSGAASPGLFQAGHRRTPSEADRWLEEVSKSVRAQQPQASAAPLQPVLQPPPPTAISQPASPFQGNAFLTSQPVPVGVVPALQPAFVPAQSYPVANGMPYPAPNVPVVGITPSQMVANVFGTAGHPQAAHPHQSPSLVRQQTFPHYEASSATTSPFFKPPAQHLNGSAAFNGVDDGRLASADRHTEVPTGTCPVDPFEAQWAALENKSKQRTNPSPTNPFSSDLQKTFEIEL

[2] = molecular target: T2, NUMB-1 as used in the SEC analysis of Figure S6C (human) (UniProt P49757); experiment: SEC; proteins combined at 100 uM (SNX9 FL counted as a dimer), MDM2 at 400 uM; Superdex 200 Increase 5/150 GL, 20 mM Tris pH 7.6, 200 mM NaCl, 0.5 mM EDTA, 1 mM DTT; fractions on SDS-PAGE, Coomassie; both purified
T2 sequence: T1 sequence

NUMB-1-GFP11 (human) = molecular target: T3, NUMB-1-GFP11 (human) (UniProt P49757); experiment: split reporter; tripartite split-GFP: SNX9-GFP10 and NUMB-1-GFP11 transfected into HEK-293 cells stably expressing GFP 1-9 and KO for SNX9 and NUMB; GFP fluorescence imaged
T3 sequence: T1 sequence

NUMB-3-FLAG (human) = experiment: co-IP; lysates of transfected HEK-293 cells in JS buffer (50 mM HEPES pH 7.5, 150 mM NaCl, 1% Triton X-100), anti-FLAG or anti-HA beads, 2 h at 4 C, immunoblot; in some panels SNX9 siRNA or graded amounts of SNX9-HA
NUMB-2-FLAG (human) = experiment: as above
NUMB-4-FLAG (human) = experiment: as above

binding [1]: binds
binding [2]: binds
Molecule: SNX9-PXmut, purified recombinant (from UniProt Q9Y5X1)

binding (NUMB-1-GFP11 (human)): no binding
Molecule: SNX9-PXmut-GFP10 (from UniProt Q9Y5X1)

binding (NUMB-3-FLAG (human)): binds
binding (NUMB-2-FLAG (human)): binds
binding (NUMB-4-FLAG (human)): binds
B1: EPS15, endogenous (protein, UniProt P42566 1-896)
chain: MAAAAQLSLTQLSSGNPVYEKYYRQVDTGNTGRVLASDAAAFLKKSGLPDLILGKIWDLADTDGKGILNKQEFFVALRLVACAQNGLEVSLSSLNLAVPPPRFHDTSSPLLISGTSAAELPWAVKPEDKAKYDAIFDSLSPVNGFLSGDKVKPVLLNSKLPVDILGRVWELSDIDHDGMLDRDEFAVAMFLVYCALEKEPVPMSLPPALVPPSKRKTWVVSPAEKAKYDEIFLKTDKDMDGFVSGLEVREIFLKTGLPSTLLAHIWSLCDTKDCGKLSKDQFALAFHLISQKLIKGIDPPHVLTPEMIPPSDRASLQKNIIGSSPVADFSAIKELDTLNNEIVDLQREKNNVEQDLKEKEDTIKQRTSEVQDLQDEVQRENTNLQKLQAQKQQVQELLDELDEQKAQLEEQLKEVRKKCAEEAQLISSLKAELTSQESQISTYEEELAKAREELSRLQQETAELEESVESGKAQLEPLQQHLQDSQQEISSMQMKLMEMKDLENHNSQLNWCSSPHSILVNGATDYCSLSTSSSETANLNEHVEGQSNLESEPIHQESPARSSPELLPSGVTDENEVTTAVTEKVCSELDNNRHSKEEDPFNVDSSSLTGPVADTNLDFFQSDPFVGSDPFKDDPFGKIDPFGGDPFKGSDPFASDCFFRQSTDPFATSSTDPFSAANNSSITSVETLKHNDPFAPGGTVVAASDSATDPFASVFGNESFGGGFADFSTLSKVNNEDPFRSATSSSVSNVVITKNVFEETSVKSEDEPPALPPKIGTPTRPCPLPPGKRSINKLDSPDPFKLNDPFQPFPGNDSPKEKDPEIFCDPFTSATTTTNKEADPSNFANFSAYPSEEDMIEWAKRESEREEEQRLARLNQQEQEDLELAIALSKSEISEA
